# Data as given in patent publication US4072810A, “Coupled peroxides” (priority 1973, dated 1978).
# What was measured:
# [1] = Vulcanization of urethane rubber formulation (Table II); settings: 0.010 mole equivalent of peroxide, 340° F., 30 minutes
# [2] = Vulcanization of ethylene-propylene rubber formulation (Table III); settings: peroxide 0.010 mole equivalent, 340° F., 30 minutes, sulfur 0.33 parts
# [3] = S.P.I. exotherm, curing an unsaturated polyester-styrene resin (Table V); settings: 115° C., 1% concentration
# Description: An unsaturated polyester resin was made by reacting maleic anhydride (1.0 mole), phthalic anhydride (1.0 mole), and propylene glycol (2.2 mole) until an acid number of 45-50 was obtained. To this was added hydroquinone at a 0.013% concentration. Seven parts of this unsaturated polyester was diluted with 3 parts of monomeric styrene to obtain a homogeneous blend having a viscosity of 13.08 poise and a specific gravity of 1.14. To 20 g. of this blend was added the 0.2 g. of the desired coupled peroxide and the resulting composition placed in a constant temperature bath at 115° C.
# The internal temperature was recorded as function of time. The following results were obtained with some of the coupled compounds (Table V):
# S.P.I. EXOTHERM AT 115° C. AND 1% CONCENTRATION
# IN POLYESTER RESIN PREPARED IN EXAMPLE VIII
Compound,300% Modulus [1] [psi],% Elongation [1] [%],300% Modulus [2] [psi],% Elongation [2] [%],Ult. Tensile [2] [psi],Barcol Hardness [3]
"CC(CC(C)(C)OOC(C)(C)C)OC(=O)OC(C)CC(C)(C)OOC(C)(C)C (stereo not drawn) [Di[1,3-dimethyl-3-(t-butylperoxy)butyl] carbonate]",2091,493,1004,567,2118,45
"CC(CC(C)(C)OOC(C)(C)C)OC(=O)CCC(=O)OC(C)CC(C)(C)OOC(C)(C)C (stereo not drawn) [Di[1,3-dimethyl-3-(t-butylperoxy)butyl]succinate]",1472,575,715,710,2096,
CC(C)(C)OOC(=O)CCOC(=O)OCCC(=O)OOC(C)(C)C [Di[2-(t-butylperoxycarbonyl)ethyl]carbonate],,,,,,45
"CC(CC(C)(C)OOC(C)(C)C)OC(=O)OCCOC(=O)OC(C)CC(C)(C)OOC(C)(C)C (stereo not drawn) [Ethylene Bis[1,3-dimethyl-3-(t-butylperoxy)-butyl carbonate]]",2419,375,1089,552,2232,45
